Record: PubChem BioAssay AID1224826 (NIAID, 2016)
This is one part, drawn at random, of about 17,000 reagents. About 1,110 of all reagents (6.6%) were called active. 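Active means lowered or raised reporter signal; replicate intensities are raw and not normalised per plate.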 Further read-outs or replicates are left out here.

- Test: 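Knock-downs that raise or lower Tnf reporter signal after endotoxin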 (primary screen)
- System: RAW264.7 G9 macrophages from mouse bearing reporters for p65 (GFP) and the Tnf promoter (mCherry)
- Reagents: siRNA pool against mouse genes, 100 nM
- Duration: 16 h of LPS stimulation, after 2 days of siRNA transfection
- Treatment: bacterial lipopolysaccharide (Salmonella minnesota R595), 10 ng/ml
- Measured: 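Imaged Tnf reporter mCherry in nuclei, minus background, normalised per plate to the median and expressed as robust z-scores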
- Scale: Tnf reporter robust z-score: higher = stronger Tnf promoter reporter signal after LPS
- Rule for the call: 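Called active when robust z-score is at most -1.3, matching the median of the Tlr4 knock-down control, or over 3; control wells and wells with under 50 cells never active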
- Calls: active = Tnf reporter clearly lowered or raised; inactive = no clear change in Tnf reporter

Or4a15 (olfactory receptor family 4 subfamily A member 15) [SID315480589]
- Tnf reporter robust z-score: -1.81
- fewer than 50 cells in well: enough cells in well
- Outcome: active

Slc12a7 [SID315469275]
- Tnf reporter robust z-score: -0.07
- fewer than 50 cells in well: enough cells in well
- Outcome: inactive

Eif4ebp2 [SID315466478]
- Tnf reporter robust z-score: -0.1
- fewer than 50 cells in well: enough cells in well
- Outcome: inactive

Ogfod3 [SID315472270]
- Tnf reporter robust z-score: 2.46
- fewer than 50 cells in well: enough cells in well
- Outcome: inactive

Msl3 (MSL complex subunit 3) [SID315467993]
- Tnf reporter robust z-score: -1.01
- fewer than 50 cells in well: enough cells in well
- Outcome: inactive

Or6c207 (olfactory receptor family 6 subfamily C member 207) [SID315480208]
- Tnf reporter robust z-score: 2.09
- fewer than 50 cells in well: enough cells in well
- Outcome: inactive

D830050J10Rik (RIKEN cDNA D830050J10 gene) [SID315481692]
- Tnf reporter robust z-score: -1.36
- fewer than 50 cells in well: enough cells in well
- Outcome: active

Pop5 [SID315477080]
- Tnf reporter robust z-score: -1.02
- fewer than 50 cells in well: enough cells in well
- Outcome: inactive

Ccl8 (C-C motif chemokine ligand 8) [SID315469144]
- Tnf reporter robust z-score: -1.06
- fewer than 50 cells in well: enough cells in well
- Outcome: inactive

Alg8 (ALG8 alpha-1,3-glucosyltransferase) [SID315481812]
- Tnf reporter robust z-score: 0.24
- fewer than 50 cells in well: enough cells in well
- Outcome: inactive

Tbrg1 (transforming growth factor beta regulated gene 1) [SID315469590]
- fewer than 50 cells in well: fewer than 50 cells per well; well left out of calls
- Outcome: inactive

Rag2 (recombination activating gene 2) [SID315468886]
- Tnf reporter robust z-score: 0.3
- fewer than 50 cells in well: enough cells in well
- Outcome: inactive

G6pc2 (glucose-6-phosphatase, catalytic, 2) [SID315466785]
- Tnf reporter robust z-score: 1.01
- fewer than 50 cells in well: enough cells in well
- Outcome: inactive

Kdg4 (alpha-ketoglutarate dehydrogenase subunit 4) [SID315472233]
- Tnf reporter robust z-score: 0.93
- fewer than 50 cells in well: enough cells in well
- Outcome: inactive

Lrrtm4 (leucine rich repeat transmembrane neuronal 4) [SID315479686]
- Tnf reporter robust z-score: -1.09
- fewer than 50 cells in well: enough cells in well
- Outcome: inactive

Fgf16 (fibroblast growth factor 16) [SID315475749]
- Tnf reporter robust z-score: -0.27
- fewer than 50 cells in well: enough cells in well
- Outcome: inactive

Nol12 (nucleolar protein 12) [SID315476114]
- Tnf reporter robust z-score: -0.45
- fewer than 50 cells in well: enough cells in well
- Outcome: inactive

Mtmr9 (myotubularin related protein 9) [SID315477639]
- Tnf reporter robust z-score: 0.95
- fewer than 50 cells in well: enough cells in well
- Outcome: inactive

Dlg5 (discs large MAGUK scaffold protein 5) [SID315474206]
- Tnf reporter robust z-score: -0.47
- fewer than 50 cells in well: enough cells in well
- Outcome: inactive

Ubxn4 (UBX domain protein 4) [SID315473237]
- Tnf reporter robust z-score: -2.01
- fewer than 50 cells in well: enough cells in well
- Outcome: active

Clcn7 (chloride channel, voltage-sensitive 7) [SID315470359]
- Tnf reporter robust z-score: -0.78
- fewer than 50 cells in well: enough cells in well
- Outcome: inactive

Adck2 (aarF domain containing kinase 2) [SID315471836]
- Tnf reporter robust z-score: -0.18
- fewer than 50 cells in well: enough cells in well
- Outcome: inactive

Ranbp6 (RAN binding protein 6) [SID315479509]
- Tnf reporter robust z-score: 0.5
- fewer than 50 cells in well: enough cells in well
- Outcome: inactive

Or8k38 (olfactory receptor family 8 subfamily K member 38) [SID315480247]
- Tnf reporter robust z-score: -0.47
- fewer than 50 cells in well: enough cells in well
- Outcome: inactive

Mphosph8 (M-phase phosphoprotein 8) [SID315475106]
- fewer than 50 cells in well: fewer than 50 cells per well; well left out of calls
- Outcome: inactive

Actl7a (actin-like 7a) [SID315465271]
- Tnf reporter robust z-score: -1.37
- fewer than 50 cells in well: enough cells in well
- Outcome: active

Ephb6 (Eph receptor B6) [SID315466531]
- Tnf reporter robust z-score: -0.81
- fewer than 50 cells in well: enough cells in well
- Outcome: inactive

Reformatted: entries from further up.
{"gene knocked down": "Or6c207 (olfactory receptor family 6 subfamily C member 207)", "PubChem SID": "SID315480208", "Tnf reporter robust z-score": 2.09, "fewer than 50 cells in well": "enough cells in well", "Outcome": "inactive"}
{"gene knocked down": "D830050J10Rik (RIKEN cDNA D830050J10 gene)", "PubChem SID": "SID315481692", "Tnf reporter robust z-score": -1.36, "fewer than 50 cells in well": "enough cells in well", "Outcome": "active"}
{"gene knocked down": "Pop5", "PubChem SID": "SID315477080", "Tnf reporter robust z-score": -1.02, "fewer than 50 cells in well": "enough cells in well", "Outcome": "inactive"}
